Laboratory results: PubChem BioAssay AID1259254 (NCATS, 2017)

- Test: 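Finding genes that stop cells copying their DNA twice in one cycle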 (primary screen)
- Cell system: human HCT116 colorectal cancer cells
- Reagents: single siRNA against human genes
- Timing: 3 days
- Detection: 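Nuclei stained with Hoechst and imaged; cell-cycle phase assigned by DNA content; G2 share scaled per plate, non-targeting siRNA 0%, GMNN siRNA 100%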
- Direction: G2 robust z-score: higher = more G2 cells, more excess DNA replication
- Hit rule: 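Active siRNAs have a G2 robust z of 5 or more median absolute deviations over the median, which in these data means about 38% or higher of GMNN control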
In all, the deposit lists about 59,000 reagents; shown is a part drawn at random. About 1,550 of all reagents (2.6%) count as active. 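G2 share is only a proxy for re-replication; each gene was hit by three separate siRNAs, and active genes were retested.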 Entries without a mark were called inactive. Reagents against one gene are numbered here. Further read-outs or replicates are left out here. The record does not give: the amount of reagent.

What is on record for PRPF40B #1?
G2 robust z-score: 1.35

With PRPF40B #2, how do the results read?
G2 robust z-score: 2.51

For PRPF40B #3, what does the deposit list?
G2 robust z-score: -0.325

Which result is listed for ANGEL2 #1?
G2 robust z-score: -0.756

With ANGEL2 #2, what does the deposit list?
G2 robust z-score: -0.869

Which result is listed for ANGEL2 #3?
G2 robust z-score: 2.89

Which result is listed for CCDC34 #1?
G2 robust z-score: 0.0221

With CCDC34 #2, what was measured?
G2 robust z-score: -0.122

What is on record for CCDC34 #3?
G2 robust z-score: 0.952

What is on record for TBL3 #1?
G2 robust z-score: 5.26 (active)

For TBL3 #2, what was measured?
G2 robust z-score: 1.72

With TBL3 #3, what does the deposit list?
G2 robust z-score: 0.201

For RBM15 #1, what does the deposit list?
G2 robust z-score: -1.11

What is on record for RBM15 #2?
G2 robust z-score: -0.399

What is on record for RBM15 #3?
G2 robust z-score: 0.149

For CENPX #1, what does the deposit list?
G2 robust z-score: -0.272

With CENPX #2, what was measured?
G2 robust z-score: 0.688

For CENPX #3, what does the deposit list?
G2 robust z-score: 0.287

With TWIST2 #1, how do the results read?
G2 robust z-score: -0.62

How did the screen score TWIST2 #2?
G2 robust z-score: 2.67

Which result is listed for TWIST2 #3?
G2 robust z-score: 1.36

What is on record for MRPL22 #1?
G2 robust z-score: -0.905

What is on record for MRPL22 #2?
G2 robust z-score: -0.282

What did the screen give for MRPL22 #3?
G2 robust z-score: -0.673

3 entries already listed, sorted by “G2 robust z-score”, high to low:
TWIST2 #3: G2 robust z-score = 1.36
MRPL22 #2: G2 robust z-score = -0.282
MRPL22 #1: G2 robust z-score = -0.905
